Consider one molecule from US9540654B2, “Synthetic brassica-derived chloroplast transit peptides” (Dow AgroSciences LLC, priority 2012, dated 2017).

Data set [1] deals with DGT-28 protein. Kind of data set: DGT-28 protein in tobacco by standard ELISA. On the technique in general: ELISA stands for enzyme-linked immunosorbent assay.
Data set [2] relates to DGT-28 protein. Kind of data set: DGT-28 protein expression in corn by standard ELISA. On the set-up: species or system Zea mays.

B1: DGT-28: EPSP synthase (GENBANK ZP_06917240.1) from Streptomyces sviceus ATCC29083; glyphosate tolerance gene and protein (protein)
chain: MRGMPALSLPGSKSITARALFLAAAADGVTTLVRPLRSDDTEGFAEGLVRLGYRVGRTPDTWQVDGRPQGPAVAEADVYCRDGATTARFLPTLAAAGHGTYRFDASPQMRRRPLLPLSRALRDLGVDLRHEEAEGHHPLTVRAAGVEGGEVTLDAGQSSQYLTALLLLGPLTRQGLRIRVTDLVSAPYVEITLAMMRAFGVEVAREGDVFVVPPGGYRATTYAIEPDASTASYFFAAAALTPGAEVTVPGLGTGALQGDLGFVDVLRRMGAEVSVGADATTVRGTGELRGLTANMRDISDTMPTLAAIAPFASAPVRIEDVANTRVKECDRLEACAENLRRLGVRVATGPDWIEIHPGPATGAQVTSYGDHRIVMSFAVTGLRVPGISFDDPGCVRKTFPGFHEAFAELRRGIGS
As to B1, in data set [1] (T2 tobacco, simple (1-2 copy) lines across constructs), the “DGT-28 mean protein expression (ELISA)” value is given as 72.8-114.5 ng/cm^2. Also, in data set [1] (all PCR positive T0 tobacco plants), the “DGT-28 protein detection (ELISA)” value was “detected in all PCR positive plants”. The “mean range of DGT-28 protein (ELISA)” value in data set [2] (T0 corn, across the constructs tested) is 12.6-22.5 ng/cm^2. Also, the “range of mean DGT-28 protein expression (ELISA)” value in data set [2] (homozygous corn, single copy events tolerant to glyphosate) was 27.5-65.8 ng/cm^2.
